PubChem BioAssay AID1224830, NIAID – 2016

Aim: 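Regulators of TLR4 signalling towards TNF-alpha in macrophage-like cells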 (primary screen)
System: human THP-1 monocytic leukaemia cells, TNF dual-luciferase reporter clone, PMA-differentiated to macrophage-like cells
Reagents: siRNA pool against human genes, 50 nM
Time to read-out: LPS for 4 h, given about 3 days after siRNA transfection
Conditions: bacterial LPS (TLR4 ligand), 10 ng/ml
Detection: 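Ratio of firefly to renilla light, scaled to the plate median and expressed as a robust z-score per replicate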
Reading the numbers: TNF reporter robust z-score: higher = stronger TNF reporter response to LPS
Active means: 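Each well counts as active if its z-score is over 2.8 or under -1.5; controls are left without a call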
Shown is one part, drawn at random, of about 18,000 reagents tested. Of all reagents, about 2,900 (16%) got an active call. 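Calls are made per well; low scores hint the gene aids the LPS response, high scores that it dampens it.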 Repeated entries: four replicate wells of each siRNA pool.

Against IL1B (GeneID 3553) the deposit lists TNF reporter robust z-score -1.26; inactive.
Silencing of IL1B (GeneID 3553) gave: TNF reporter robust z-score -0.22; inactive.
Against IL1B (GeneID 3553), the entry reads TNF reporter robust z-score -0.7; inactive.
Knock-down of IL1B (GeneID 3553) came out at: TNF reporter robust z-score -0.8; inactive.
For CD37 (GeneID 951) the deposit lists TNF reporter robust z-score 1.41; inactive.
Silencing of CD37 (GeneID 951) resulted in: TNF reporter robust z-score -1.19; inactive.
With knock-down of CD37 (GeneID 951), the record shows TNF reporter robust z-score -0.81; inactive.
CD37 (GeneID 951) scored TNF reporter robust z-score -0.86; inactive.

Copied from the entries so far, 3 entries:
CD37 (GeneID 951) → TNF reporter robust z-score: 1.41; activity call: inactive
CD37 (GeneID 951) → TNF reporter robust z-score: -1.19; activity call: inactive
CD37 (GeneID 951) → TNF reporter robust z-score: -0.81; activity call: inactive

Continued.
Silencing of MAP3K14 (GeneID 9020) came out at: TNF reporter robust z-score 1.25; inactive.
Knock-down of MAP3K14 (GeneID 9020) resulted in: TNF reporter robust z-score 0.16; inactive.
After knock-down of MAP3K14 (GeneID 9020), the record shows TNF reporter robust z-score 0.23; inactive.
MAP3K14 (GeneID 9020) gave TNF reporter robust z-score -0.79; inactive.
Against TIE1 (GeneID 7075) the deposit lists TNF reporter robust z-score 3.99; active.
After knock-down of TIE1 (GeneID 7075), the screen gave TNF reporter robust z-score 2.66; inactive.
Depletion of TIE1 (GeneID 7075) resulted in: TNF reporter robust z-score 0.71; inactive.
Knock-down of TIE1 (GeneID 7075) gave: TNF reporter robust z-score 2.32; inactive.
TMEM11 (GeneID 8834) scored TNF reporter robust z-score 0.66; inactive.
Against TMEM11 (GeneID 8834) the deposit lists TNF reporter robust z-score -0.01; inactive.
Against TMEM11 (GeneID 8834), the entry reads TNF reporter robust z-score 0.6; inactive.
Against TMEM11 (GeneID 8834) the deposit lists TNF reporter robust z-score 2.51; inactive.
